# Primary screen of a compound library

Sequences of proteins named here, by UniProt entry; tags and fusion partners are left off.
UniProt P9WPC5, whole entry: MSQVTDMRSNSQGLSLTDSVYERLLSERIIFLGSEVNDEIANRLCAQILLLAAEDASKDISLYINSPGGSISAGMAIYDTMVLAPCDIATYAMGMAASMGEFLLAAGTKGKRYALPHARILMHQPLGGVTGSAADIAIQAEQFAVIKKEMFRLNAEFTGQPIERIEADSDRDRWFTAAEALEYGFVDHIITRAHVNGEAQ
UniProt P9WPC3, whole entry partner: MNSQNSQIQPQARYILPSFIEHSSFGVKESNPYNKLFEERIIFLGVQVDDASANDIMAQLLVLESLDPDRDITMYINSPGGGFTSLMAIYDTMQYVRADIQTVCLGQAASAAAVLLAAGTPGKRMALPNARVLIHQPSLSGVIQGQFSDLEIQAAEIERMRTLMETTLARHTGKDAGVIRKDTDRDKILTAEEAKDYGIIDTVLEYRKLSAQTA

The values are deposited in ChEMBL (CHEMBL3988442, “University of Dundee, Small-Polar-MMV Screening Library” (2021)).

Each number is a percent effect as filed. How 0% and 100% were set is not recorded. Most values in the screen are low, and negative values occur. Compounds were drawn at random from those tested, without regard to their results. A dash means the value is not listed here; it may have been measured.

Toxoplasma: 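Assay of Toxoplasma gondii numbers, read through their beta-galactosidase reporter with a colour substrate. Compounds at 10 µM. The record gives no direction; the compounds picked for IC50 retests had high values, so higher reads as fewer parasites. Size under these conditions: about 67,000 compounds, about 260 of them at 50% or above in at least one test.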
ClpP1P2: 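ClpP1P2, Mycobacterium tuberculosis (UniProt P9WPC5 and UniProt P9WPC3). Protease assay of ClpP1P2, read by the AMC dye that it sets free. Tested at 50 µM. Direction is inferred from only a few compounds that gave an IC50; most scored high, so higher reads as stronger inhibition. Most other retested compounds had strongly negative values. Of about 69,000 compounds tested this way, about 10 (0.015%) reached 50% or more in at least one test.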
Leishmania in macrophages: 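Cell assay of Leishmania donovani living inside macrophages; the read-out is not stated. Tested at 30 µM. The record gives no direction; compounds that gave an IC50 in retests scored well above the rest, so higher reads as stronger inhibition. Size under these conditions: about 69,000 compounds, about 1,000 of them at 50% or above in at least one test.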
T. brucei: 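Whole-parasite assay of Trypanosoma brucei over 72 hours; the read-out is not stated. Concentration: 30 µM. The record gives no direction; compounds that gave an IC50 in retests scored well above the rest, so higher reads as stronger inhibition. Values scatter widely below zero; nearly all retest evidence comes from the higher of the two concentrations used. Size under these conditions: about 64,000 compounds, about 940 of them at 50% or above in at least one test.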

For Cc1nc(-c2ccc(Cl)s2)sc1C(=O)NC(C)(C)C(N)=O the result was Toxoplasma: 18.29%; ClpP1P2: -260%; Leishmania in macrophages: -26.43%. CCc1ccccc1OC1CN(C(=O)CN(C)Cc2cccnc2)C1 read Toxoplasma: -1.125%; ClpP1P2: 8.517%; Leishmania in macrophages: -2.663%; T. brucei: 5.158%. With CC(C)(C)c1cc(CN2CC[C@@H](NC(=O)c3cccnc3)[C@H](O)C2)n[nH]1 the screen gave Toxoplasma: -11.22%; ClpP1P2: -1.876%; Leishmania in macrophages: 23.02%; T. brucei: 0.6083%. CCC(CC)NC(=O)c1ncn2c1CN(CC)S(=O)(=O)c1ccccc1-2.O=C(O)C(F)(F)F gave Toxoplasma: -6.812%; Leishmania in macrophages: 49.33%; T. brucei: -15.47%. Result for O=C1CCC2(CCCN(CCc3ccccc3)C2)N1Cc1cccnc1 (stereo not drawn) was ClpP1P2: 19.17%. With CN(C)S(=O)(=O)c1ccc(CNC(=O)C2CC(=O)N(C(C)(C)C)C2)cc1 (stereo not drawn) the screen gave Toxoplasma: 6.336%; ClpP1P2: -11.88%; Leishmania in macrophages: 21.08%; T. brucei: 6.335%. For COc1ccccc1-c1cc(NC(=O)COCC2CC2)[nH]n1 the result was Toxoplasma: -11.36%; ClpP1P2: 9.188%; Leishmania in macrophages: 42.3%; T. brucei: 2.078%. With O=C(O)C1(Cc2ccc(F)cc2F)CCCN(Cc2ccccn2)C1 (stereo not drawn) the screen gave Toxoplasma: -15.32%; ClpP1P2: -2.676%; Leishmania in macrophages: 3.374%; T. brucei: -59.98%.

Result for CC(=O)NC1CCN(C(=O)Nc2cccc(C(F)(F)F)c2)CC1 was Toxoplasma: -4.592%; ClpP1P2: -0.6215%; Leishmania in macrophages: -20.21%; T. brucei: -33.78%. [H][C@@]12CCCC[C@]1(O)CCN(C(=O)c1ccc(OC)c(OC)c1)C2 read Toxoplasma: 14.47%; Leishmania in macrophages: 15.68%; T. brucei: -6.548%. Cc1nc(CN(C)C2CCN(CC(=O)N(C)CCC#N)C2)no1 (stereo not drawn) read Toxoplasma: 4.298%; ClpP1P2: 1.273%; Leishmania in macrophages: 18.61%; T. brucei: -55.63%. For CCOc1cccc(C(=O)NCCC(=O)NCc2ccncc2)c1 the result was Toxoplasma: -18.48%; ClpP1P2: 6.284%; Leishmania in macrophages: 7.03%; T. brucei: -2.443%. COc1ccc(CC(=O)N2CC[C@@]3(O)CCNC[C@H]3C2)c(OC)c1 read ClpP1P2: -12.3%. Result for Cc1nnc2n1CCN(C(C)c1nnc(-c3cccs3)o1)C2 (stereo not drawn) was Toxoplasma: -8.732%; ClpP1P2: 12.1%; Leishmania in macrophages: -2.892%; T. brucei: -27.39%. For Cn1cnnc1-c1ccnc(NCc2ccccc2)c1 the result was Toxoplasma: 4.659%; ClpP1P2: -0.233%; Leishmania in macrophages: 10.76%; T. brucei: 5.527%. O=C(CC1CC1)N1Cc2nccn2CC(Cn2ncccc2=O)C1 (stereo not drawn) gave Toxoplasma: -1.1%; ClpP1P2: -3.146%; Leishmania in macrophages: 8.826%; T. brucei: -10.74%.

COCc1cccc(CNCc2c(C)nn(C)c2N(C)C)c1 gave Toxoplasma: 3.733%; ClpP1P2: 8.498%; Leishmania in macrophages: 0.5068%; T. brucei: 4.695%. With Cn1cnc2c1C(COCc1cccnc1)N(Cc1nccs1)CC2.O=C(O)C(F)(F)F.O=C(O)C(F)(F)F.O=C(O)C(F)(F)F (stereo not drawn) the screen gave Toxoplasma: 3.448%; Leishmania in macrophages: 24.13%; T. brucei: -9.405%. Result for CCc1cnc(CN(C(C)=O)C2CCN(CC(=O)N3CCCC3)C2)o1 (stereo not drawn) was Toxoplasma: 4.195%; ClpP1P2: -13.53%; Leishmania in macrophages: 28.38%; T. brucei: -20.09%. CCN(CC1CCOC1)C(=O)c1ccc(N2CCOCC2)c(F)c1 (stereo not drawn) read Toxoplasma: 0.9916%; ClpP1P2: -29.45%; Leishmania in macrophages: 1.554%; T. brucei: -9.543%. Cc1ccoc1C(=O)N1CC[C@H]2C[C@H](c3nnc(C4CC4)o3)O[C@@H]2C1 gave ClpP1P2: -0.7126%. Result for CCn1nc(C)c(C(C)NC(=O)c2cnc(N(C)C)nc2C)c1C (stereo not drawn) was Toxoplasma: -10.64%; ClpP1P2: 14.59%; Leishmania in macrophages: 8.112%; T. brucei: 3.278%. COCCC(=O)N1CCC(Nc2ncc(Cl)cn2)CC1 gave Toxoplasma: 20.32%; ClpP1P2: -11.36%; Leishmania in macrophages: 12.3%; T. brucei: -4.426%. C[C@@H]1CN(Cc2c[nH]c(CC3CCCC3)n2)CC[C@]1(C)O read Toxoplasma: 15.12%; ClpP1P2: -1.719%; Leishmania in macrophages: -2.337%; T. brucei: -22.68%.

Cc1cnn(C2CCN(Cc3ccccc3)C2)c1N (stereo not drawn) read Toxoplasma: -7.734%; ClpP1P2: -9.671%; Leishmania in macrophages: -5.865%; T. brucei: -11.52%. With Cc1csc(CN2CC[C@H]3C[C@@H](c4nc(C)no4)O[C@@H]3C2)n1 the screen gave ClpP1P2: 1.847%. With CNC(=O)CN1CCOCC2(CCCN(Cc3ccsc3)C2)C1.O=C(O)C(F)(F)F.O=C(O)C(F)(F)F (stereo not drawn) the screen gave Toxoplasma: -20.12%; Leishmania in macrophages: 1.401%; T. brucei: -54.75%. Result for Nc1ncc(-c2ccc(F)cc2)c(C2CCCNC2)n1 (stereo not drawn) was Toxoplasma: -24.41%; ClpP1P2: -28.16%; Leishmania in macrophages: 28.63%; T. brucei: 1.475%. Result for [H][C@@]12CS(=O)(=O)C[C@]1([H])NCCN2C(=O)COc1cccnc1C was Toxoplasma: 5.901%; Leishmania in macrophages: 26.62%; T. brucei: 0.1296%.

Repeated from the top, 2 entries:

compound	Toxoplasma	ClpP1P2	Leishmania in macrophages	T. brucei
Cc1nc(-c2ccc(Cl)s2)sc1C(=O)NC(C)(C)C(N)=O	18.29%	-260%	-26.43%	-
CCc1ccccc1OC1CN(C(=O)CN(C)Cc2cccnc2)C1	-1.125%	8.517%	-2.663%	5.158%